In article PMC9065090 one finds binding data, which are given here for 1 molecule.

No constants are given. Whether binding was seen depends on the method and setting. In cells and extracts the contact can be indirect. Where a sequence is shown, tags or fusion partners need not be part of it.

In the test the target is full-length CNPY4 (two differentially tagged constructs) (UniProt Q8N129). Nature of the test: co-IP; two differentially tagged constructs of full-length CNPY4 transfected into HEK293 cells; lysis in 0.5% Triton X-100, 0.5% NP-40, 150 mM NaCl, 50 mM Tris pH 8.0; antibody on protein A beads overnight at 4 °C.

B1: full-length CNPY4 (two differentially tagged constructs) (protein, UniProt Q8N129 22-248)
chain: GMLKEEDDDTERLPSKCEVCKLLSTELQAELSRTGRSREVLELGQVLDTGKRKRHVPYSVSETRLEEALENLCERILDYSVHAERKGSLRYAKGQSQTMATLKGLVQKGVKVDLGIPLELWDEPSVEVTYLKKQCETMLEEFEDIVGDWYFHHQEQPLQNFLCEGHVLPAAETACLQETWTGKEITDGEEKTEGEEEQEEEEEEEEEEGGDKMTKTGSHPKLDREDL
For the molecule B1, the binding result was “no binding”.
